Experimental data: PubChem BioAssay AID1259254 (NCATS, 2017)

- Purpose: 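Genome-wide screen for genes that prevent DNA re-replication in cancer cells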 (primary screen)
- Cells: human HCT116 colorectal cancer cells
- Reagents: single siRNA against human genes
- Timing: 3 days
- Measured: 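Nuclei stained with Hoechst and imaged; cell-cycle phase assigned by DNA content; G2 share scaled per plate, non-targeting siRNA 0%, GMNN siRNA 100%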
- Direction: G2 robust z-score and G2 cells, % of GMNN control: higher = more G2 cells, more excess DNA replication; raw share of cells in G2: higher = larger share of cells with G2 DNA content
- Rule for the call: 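Active siRNAs have a G2 robust z of 5 or more median absolute deviations over the median, which in these data means about 38% or higher of GMNN control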
The deposit covers about 59,000 reagents; this is an unselected part. About 1,550 of them (2.6%) were called active. 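G2 share is only a proxy for re-replication; each gene was hit by three separate siRNAs, and active genes were retested.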 The raw values are shown without normalisation. The numbers tell different reagents against one gene apart. Reagent sequences are not shown. Not given: the amount of reagent.

| gene knocked down | reagent | G2 robust z-score | G2 cells, % of GMNN control | raw share of cells in G2 (%) | outcome |
| --- | --- | --- | --- | --- | --- |
| SLC25A19 (GeneID 60386) | 1 | -0.823 | -2.82 | 3.2 | inactive |
| SLC25A19 (GeneID 60386) | 2 | 0.569 | 6.97 | 6.81 | inactive |
| SLC25A19 (GeneID 60386) | 3 | -0.139 | 1.99 | 6.47 | inactive |
| ANKK1 (GeneID 255239) | 1 | -0.0436 | 2.66 | 6.42 | inactive |
| ANKK1 (GeneID 255239) | 2 | -0.498 | -0.535 | 5 | inactive |
| ANKK1 (GeneID 255239) | 3 | 2.55 | 20.9 | 10.4 | inactive |
| PDLIM2 (GeneID 64236) | 1 | -0.147 | 1.94 | 4.93 | inactive |
| PDLIM2 (GeneID 64236) | 2 | -0.915 | -3.47 | 4.21 | inactive |
| PDLIM2 (GeneID 64236) | 3 | -0.329 | 0.655 | 4.58 | inactive |
| IL12RB1 (GeneID 3594) | 1 | -0.818 | -2.79 | 4.62 | inactive |
| IL12RB1 (GeneID 3594) | 2 | -0.822 | -2.81 | 4.02 | inactive |
| IL12RB1 (GeneID 3594) | 3 | 0.141 | 3.96 | 5.65 | inactive |
| RBPJ (GeneID 3516) | 1 | 0.0558 | 3.36 | 5.43 | inactive |
| RBPJ (GeneID 3516) | 2 | 0.359 | 5.49 | 7.77 | inactive |
| RBPJ (GeneID 3516) | 3 | -0.551 | -0.907 | 4.71 | inactive |
| CYBC1 (GeneID 79415) | 1 | -0.0852 | 2.37 | 3.32 | inactive |
| CYBC1 (GeneID 79415) | 2 | -0.547 | -0.88 | 4.2 | inactive |
| CYBC1 (GeneID 79415) | 3 | -0.365 | 0.4 | 4.79 | inactive |
| CCDC33 (GeneID 80125) | 1 | -0.171 | 1.76 | 5.18 | inactive |
| CCDC33 (GeneID 80125) | 2 | 4.32 | 33.4 | 18.9 | inactive |
| CCDC33 (GeneID 80125) | 3 | 0.61 | 7.26 | 4.36 | inactive |
| RPLP1P7 (GeneID 133609) | 1 | 0.0887 | 3.59 | 3.88 | inactive |
| RPLP1P7 (GeneID 133609) | 2 | 0.85 | 8.95 | 7.55 | inactive |
| RPLP1P7 (GeneID 133609) | 3 | -0.402 | 0.141 | 3.15 | inactive |
| GATA3-AS1 (GeneID 399717) | 1 | -0.0951 | 2.3 | 5.74 | inactive |
| GATA3-AS1 (GeneID 399717) | 2 | -0.675 | -1.78 | 3.16 | inactive |
| GATA3-AS1 (GeneID 399717) | 3 | -0.347 | 0.524 | 3.72 | inactive |
| CHIC1 (GeneID 53344) | 1 | -0.402 | 0.138 | 3.24 | inactive |
| CHIC1 (GeneID 53344) | 2 | 8.27 | 61.1 | 25.5 | active |
| CHIC1 (GeneID 53344) | 3 | -0.877 | -3.2 | 2.92 | inactive |
| ZNF566-AS1 (GeneID 728752) | 1 | -0.26 | 1.14 | 4.36 | inactive |
| ZNF566-AS1 (GeneID 728752) | 2 | -0.966 | -3.83 | 2.08 | inactive |
| ZNF566-AS1 (GeneID 728752) | 3 | -0.925 | -3.54 | 1.73 | inactive |
| HSPB9 (GeneID 94086) | 1 | -0.509 | -0.617 | 3.31 | inactive |
| HSPB9 (GeneID 94086) | 2 | 0.81 | 8.66 | 6.07 | inactive |
| HSPB9 (GeneID 94086) | 3 | 2.53 | 20.7 | 10.4 | inactive |
| ARHGEF1 (GeneID 9138) | 1 | -0.083 | 2.38 | 5.56 | inactive |
| ARHGEF1 (GeneID 9138) | 2 | -0.501 | -0.555 | 5.07 | inactive |
| ARHGEF1 (GeneID 9138) | 3 | 0.835 | 8.84 | 8.55 | inactive |
| CSRP1 (GeneID 1465) | 1 | -0.25 | 1.21 | 5.43 | inactive |
| CSRP1 (GeneID 1465) | 2 | 0.181 | 4.24 | 5.56 | inactive |
| CSRP1 (GeneID 1465) | 3 | 1.83 | 15.9 | 10.6 | inactive |
| PEX19 (GeneID 5824) | 1 | 0.241 | 4.67 | 6.96 | inactive |
| PEX19 (GeneID 5824) | 2 | 0.953 | 9.67 | 8.04 | inactive |
| PEX19 (GeneID 5824) | 3 | -0.73 | -2.17 | 2.57 | inactive |
| ZNF598 (GeneID 90850) | 1 | -0.406 | 0.113 | 5.72 | inactive |
| ZNF598 (GeneID 90850) | 2 | -0.624 | -1.43 | 4.35 | inactive |
| ZNF598 (GeneID 90850) | 3 | 0.979 | 9.86 | 8.2 | inactive |
| MAST4 (GeneID 375449) | 1 | -0.284 | 0.969 | 4.1 | inactive |
| MAST4 (GeneID 375449) | 2 | -0.0368 | 2.71 | 4.58 | inactive |
| MAST4 (GeneID 375449) | 3 | -0.574 | -1.07 | 4.18 | inactive |
| KIR2DL1 (GeneID 3802) | 1 | -0.0538 | 2.59 | 5.24 | inactive |
| KIR2DL1 (GeneID 3802) | 2 | -0.388 | 0.235 | 3.44 | inactive |
| KIR2DL1 (GeneID 3802) | 3 | 2.47 | 20.3 | 13.6 | inactive |
| RALGPS1 (GeneID 9649) | 1 | -0.849 | -3.01 | 3.97 | inactive |
| RALGPS1 (GeneID 9649) | 2 | -0.62 | -1.39 | 3.36 | inactive |
| RALGPS1 (GeneID 9649) | 3 | 0.904 | 9.33 | 6.8 | inactive |
| TMX3 (GeneID 54495) | 1 | -0.748 | -2.3 | 2.92 | inactive |
| TMX3 (GeneID 54495) | 2 | -0.75 | -2.31 | 4.91 | inactive |
| TMX3 (GeneID 54495) | 3 | -1.13 | -4.98 | 2.4 | inactive |
| LOX (GeneID 4015) | 1 | 8.23 | 60.9 | 29.6 | active |
| LOX (GeneID 4015) | 2 | 5.64 | 42.6 | 21.8 | active |
| LOX (GeneID 4015) | 3 | -0.847 | -2.99 | 2.21 | inactive |
| CIMAP1A (GeneID 113746) | 1 | 3.67 | 28.8 | 15.6 | inactive |
| CIMAP1A (GeneID 113746) | 2 | 1.24 | 11.7 | 6.81 | inactive |
| CIMAP1A (GeneID 113746) | 3 | 3.41 | 26.9 | 9.69 | inactive |
| CD163 (GeneID 9332) | 1 | -0.984 | -3.95 | 3.29 | inactive |
| CD163 (GeneID 9332) | 2 | 2.09 | 17.7 | 11.5 | inactive |
| CD163 (GeneID 9332) | 3 | 0.495 | 6.45 | 7.47 | inactive |
